The values below come from the supplement of paper PMC12067093, “Discovery and optimisation of a covalent ligand for TRIM25 and its application to targeted protein ubiquitination” (Chemical Science, 2025).

By UniProt entry, the sequences of proteins in these tests, tags left out. Where a name states a change or a piece, a line headed by the entry shows the natural chain unless it says otherwise.
UniProt Q96S82: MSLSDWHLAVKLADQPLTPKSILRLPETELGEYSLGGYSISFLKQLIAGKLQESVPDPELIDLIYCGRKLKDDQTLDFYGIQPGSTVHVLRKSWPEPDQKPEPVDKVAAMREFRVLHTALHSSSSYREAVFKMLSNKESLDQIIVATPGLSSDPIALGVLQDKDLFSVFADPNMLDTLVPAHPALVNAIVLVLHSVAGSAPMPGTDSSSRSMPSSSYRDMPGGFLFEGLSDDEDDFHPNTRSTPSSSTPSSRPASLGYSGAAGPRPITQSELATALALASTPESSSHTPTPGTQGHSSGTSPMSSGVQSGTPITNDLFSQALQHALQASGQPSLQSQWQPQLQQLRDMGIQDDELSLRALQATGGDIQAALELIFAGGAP
UniProt P29597: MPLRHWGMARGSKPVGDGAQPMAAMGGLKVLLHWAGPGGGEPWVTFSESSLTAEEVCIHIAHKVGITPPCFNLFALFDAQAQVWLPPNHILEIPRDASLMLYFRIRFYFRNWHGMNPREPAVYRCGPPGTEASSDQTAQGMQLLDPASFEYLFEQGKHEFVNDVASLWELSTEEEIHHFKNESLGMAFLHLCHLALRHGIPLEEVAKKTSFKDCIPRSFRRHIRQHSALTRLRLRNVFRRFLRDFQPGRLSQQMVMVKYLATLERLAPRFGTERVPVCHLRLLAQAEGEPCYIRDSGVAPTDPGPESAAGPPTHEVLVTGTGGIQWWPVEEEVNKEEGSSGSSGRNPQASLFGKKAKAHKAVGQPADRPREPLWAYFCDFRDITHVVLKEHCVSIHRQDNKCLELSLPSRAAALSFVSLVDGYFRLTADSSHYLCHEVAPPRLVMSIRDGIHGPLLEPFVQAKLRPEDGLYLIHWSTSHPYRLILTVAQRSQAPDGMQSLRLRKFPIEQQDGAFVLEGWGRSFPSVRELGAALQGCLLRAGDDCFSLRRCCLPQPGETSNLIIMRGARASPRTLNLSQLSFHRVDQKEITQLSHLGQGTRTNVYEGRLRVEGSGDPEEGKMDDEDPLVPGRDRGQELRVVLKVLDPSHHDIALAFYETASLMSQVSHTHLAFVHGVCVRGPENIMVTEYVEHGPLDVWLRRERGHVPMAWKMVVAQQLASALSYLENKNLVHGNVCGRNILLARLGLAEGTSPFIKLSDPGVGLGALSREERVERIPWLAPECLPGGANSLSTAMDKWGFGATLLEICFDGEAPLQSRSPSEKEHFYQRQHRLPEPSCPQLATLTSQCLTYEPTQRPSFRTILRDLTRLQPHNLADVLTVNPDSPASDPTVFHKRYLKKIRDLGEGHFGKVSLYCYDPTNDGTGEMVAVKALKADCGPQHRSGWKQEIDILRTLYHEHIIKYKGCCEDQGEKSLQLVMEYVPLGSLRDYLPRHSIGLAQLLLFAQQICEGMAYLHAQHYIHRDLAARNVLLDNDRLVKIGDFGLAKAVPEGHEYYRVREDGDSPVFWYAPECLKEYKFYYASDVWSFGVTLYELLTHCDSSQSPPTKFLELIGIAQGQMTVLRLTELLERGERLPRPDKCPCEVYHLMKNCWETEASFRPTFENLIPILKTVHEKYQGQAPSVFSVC
UniProt Q9H3M7: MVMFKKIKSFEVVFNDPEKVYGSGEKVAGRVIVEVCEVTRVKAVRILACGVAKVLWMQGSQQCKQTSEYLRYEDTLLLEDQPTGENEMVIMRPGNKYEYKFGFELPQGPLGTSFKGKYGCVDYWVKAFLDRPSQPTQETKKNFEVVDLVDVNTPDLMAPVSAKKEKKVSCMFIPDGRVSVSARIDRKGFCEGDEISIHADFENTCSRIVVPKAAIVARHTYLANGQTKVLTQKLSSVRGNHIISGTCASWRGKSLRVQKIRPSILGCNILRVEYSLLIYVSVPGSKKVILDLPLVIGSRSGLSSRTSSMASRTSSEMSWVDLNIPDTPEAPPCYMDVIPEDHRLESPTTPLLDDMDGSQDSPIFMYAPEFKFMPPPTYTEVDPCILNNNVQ
UniProt Q9NZ09: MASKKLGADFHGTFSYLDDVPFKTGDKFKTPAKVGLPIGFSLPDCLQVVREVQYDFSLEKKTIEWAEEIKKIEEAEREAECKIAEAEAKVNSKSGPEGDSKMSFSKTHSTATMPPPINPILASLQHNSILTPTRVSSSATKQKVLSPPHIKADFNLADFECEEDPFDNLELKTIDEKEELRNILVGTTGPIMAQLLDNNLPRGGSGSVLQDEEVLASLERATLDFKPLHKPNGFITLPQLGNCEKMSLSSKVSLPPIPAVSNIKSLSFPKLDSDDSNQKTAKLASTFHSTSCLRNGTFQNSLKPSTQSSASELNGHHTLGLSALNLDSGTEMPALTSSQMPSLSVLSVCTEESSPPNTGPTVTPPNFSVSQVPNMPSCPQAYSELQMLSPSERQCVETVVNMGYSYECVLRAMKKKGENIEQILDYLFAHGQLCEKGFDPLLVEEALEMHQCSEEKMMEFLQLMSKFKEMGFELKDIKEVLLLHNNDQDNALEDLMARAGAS
UniProt Q9H832: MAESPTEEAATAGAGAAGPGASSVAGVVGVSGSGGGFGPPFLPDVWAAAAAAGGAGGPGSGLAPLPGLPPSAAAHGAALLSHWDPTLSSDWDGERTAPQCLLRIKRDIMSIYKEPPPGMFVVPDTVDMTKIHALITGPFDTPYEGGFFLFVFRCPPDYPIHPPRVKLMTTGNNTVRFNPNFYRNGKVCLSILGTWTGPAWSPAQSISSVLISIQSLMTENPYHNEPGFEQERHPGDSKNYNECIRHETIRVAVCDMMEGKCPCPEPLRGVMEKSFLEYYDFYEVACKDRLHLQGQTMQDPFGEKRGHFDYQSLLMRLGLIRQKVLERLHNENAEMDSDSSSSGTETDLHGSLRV
UniProt Q13404: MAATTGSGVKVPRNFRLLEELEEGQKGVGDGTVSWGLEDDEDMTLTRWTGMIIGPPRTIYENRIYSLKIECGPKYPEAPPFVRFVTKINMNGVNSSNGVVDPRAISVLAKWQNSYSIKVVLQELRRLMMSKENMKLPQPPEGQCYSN
UniProt O14530: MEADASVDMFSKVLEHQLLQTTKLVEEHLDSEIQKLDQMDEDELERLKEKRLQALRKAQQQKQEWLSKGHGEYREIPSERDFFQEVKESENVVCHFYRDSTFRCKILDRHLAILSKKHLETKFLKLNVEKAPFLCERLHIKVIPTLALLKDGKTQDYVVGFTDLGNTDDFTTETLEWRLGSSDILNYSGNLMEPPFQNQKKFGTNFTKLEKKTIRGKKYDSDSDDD
UniProt Q9BSL1: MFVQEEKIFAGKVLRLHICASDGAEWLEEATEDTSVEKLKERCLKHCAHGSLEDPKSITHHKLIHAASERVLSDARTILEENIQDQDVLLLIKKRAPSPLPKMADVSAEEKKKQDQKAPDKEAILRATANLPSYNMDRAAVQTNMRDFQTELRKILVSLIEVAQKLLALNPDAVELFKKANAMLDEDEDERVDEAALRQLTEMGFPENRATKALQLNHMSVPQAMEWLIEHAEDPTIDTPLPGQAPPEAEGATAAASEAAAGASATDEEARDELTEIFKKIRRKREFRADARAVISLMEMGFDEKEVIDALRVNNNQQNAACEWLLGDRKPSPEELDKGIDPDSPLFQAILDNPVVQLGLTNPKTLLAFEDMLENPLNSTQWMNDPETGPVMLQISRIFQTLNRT
UniProt Q8IWV7: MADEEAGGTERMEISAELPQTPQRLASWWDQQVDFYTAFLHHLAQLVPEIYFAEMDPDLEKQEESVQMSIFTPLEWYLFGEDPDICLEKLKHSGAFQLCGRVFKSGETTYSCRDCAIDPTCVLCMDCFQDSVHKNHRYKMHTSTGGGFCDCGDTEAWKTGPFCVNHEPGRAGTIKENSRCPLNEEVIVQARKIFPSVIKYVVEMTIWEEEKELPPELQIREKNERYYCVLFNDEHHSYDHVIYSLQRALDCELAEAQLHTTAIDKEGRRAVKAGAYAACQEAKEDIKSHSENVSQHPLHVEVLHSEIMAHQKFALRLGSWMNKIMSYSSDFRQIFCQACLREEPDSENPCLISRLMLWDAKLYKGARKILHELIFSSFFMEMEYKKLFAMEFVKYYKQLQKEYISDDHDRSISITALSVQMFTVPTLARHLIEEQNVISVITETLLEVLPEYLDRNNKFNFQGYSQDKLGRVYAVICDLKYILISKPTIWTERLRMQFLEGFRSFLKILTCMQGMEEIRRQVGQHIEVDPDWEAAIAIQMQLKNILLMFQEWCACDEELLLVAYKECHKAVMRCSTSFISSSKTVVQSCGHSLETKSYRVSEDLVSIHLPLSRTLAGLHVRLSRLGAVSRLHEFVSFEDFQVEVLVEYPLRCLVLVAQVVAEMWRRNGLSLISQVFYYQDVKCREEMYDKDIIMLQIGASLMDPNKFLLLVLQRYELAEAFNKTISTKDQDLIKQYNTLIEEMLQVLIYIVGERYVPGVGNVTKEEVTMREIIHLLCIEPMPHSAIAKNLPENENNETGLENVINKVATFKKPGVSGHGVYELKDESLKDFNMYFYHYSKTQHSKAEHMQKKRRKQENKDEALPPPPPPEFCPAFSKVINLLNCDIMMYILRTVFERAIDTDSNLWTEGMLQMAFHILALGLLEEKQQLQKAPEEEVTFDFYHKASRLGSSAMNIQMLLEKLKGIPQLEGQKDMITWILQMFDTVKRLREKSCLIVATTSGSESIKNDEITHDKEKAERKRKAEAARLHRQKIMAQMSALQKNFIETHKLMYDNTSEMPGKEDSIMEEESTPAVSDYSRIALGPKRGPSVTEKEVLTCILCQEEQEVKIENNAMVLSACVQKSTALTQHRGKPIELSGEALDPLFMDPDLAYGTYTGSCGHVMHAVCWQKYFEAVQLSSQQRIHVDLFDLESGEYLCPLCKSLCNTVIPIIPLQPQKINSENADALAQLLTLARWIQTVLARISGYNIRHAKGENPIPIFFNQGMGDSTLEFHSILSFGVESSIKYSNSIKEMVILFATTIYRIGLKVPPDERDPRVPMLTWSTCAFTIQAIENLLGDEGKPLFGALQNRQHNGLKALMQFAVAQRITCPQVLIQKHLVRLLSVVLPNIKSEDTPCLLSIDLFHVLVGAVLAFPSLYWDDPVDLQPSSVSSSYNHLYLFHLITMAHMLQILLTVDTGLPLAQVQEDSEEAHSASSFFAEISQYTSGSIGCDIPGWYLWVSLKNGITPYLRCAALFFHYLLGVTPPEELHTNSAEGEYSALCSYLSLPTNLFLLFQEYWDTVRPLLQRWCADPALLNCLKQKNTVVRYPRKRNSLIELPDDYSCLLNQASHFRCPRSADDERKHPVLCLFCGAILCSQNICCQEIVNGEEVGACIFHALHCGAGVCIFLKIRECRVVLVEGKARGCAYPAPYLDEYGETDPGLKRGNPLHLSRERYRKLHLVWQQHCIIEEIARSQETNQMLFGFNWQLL
UniProt Q9NPG3, whole entry, looked up: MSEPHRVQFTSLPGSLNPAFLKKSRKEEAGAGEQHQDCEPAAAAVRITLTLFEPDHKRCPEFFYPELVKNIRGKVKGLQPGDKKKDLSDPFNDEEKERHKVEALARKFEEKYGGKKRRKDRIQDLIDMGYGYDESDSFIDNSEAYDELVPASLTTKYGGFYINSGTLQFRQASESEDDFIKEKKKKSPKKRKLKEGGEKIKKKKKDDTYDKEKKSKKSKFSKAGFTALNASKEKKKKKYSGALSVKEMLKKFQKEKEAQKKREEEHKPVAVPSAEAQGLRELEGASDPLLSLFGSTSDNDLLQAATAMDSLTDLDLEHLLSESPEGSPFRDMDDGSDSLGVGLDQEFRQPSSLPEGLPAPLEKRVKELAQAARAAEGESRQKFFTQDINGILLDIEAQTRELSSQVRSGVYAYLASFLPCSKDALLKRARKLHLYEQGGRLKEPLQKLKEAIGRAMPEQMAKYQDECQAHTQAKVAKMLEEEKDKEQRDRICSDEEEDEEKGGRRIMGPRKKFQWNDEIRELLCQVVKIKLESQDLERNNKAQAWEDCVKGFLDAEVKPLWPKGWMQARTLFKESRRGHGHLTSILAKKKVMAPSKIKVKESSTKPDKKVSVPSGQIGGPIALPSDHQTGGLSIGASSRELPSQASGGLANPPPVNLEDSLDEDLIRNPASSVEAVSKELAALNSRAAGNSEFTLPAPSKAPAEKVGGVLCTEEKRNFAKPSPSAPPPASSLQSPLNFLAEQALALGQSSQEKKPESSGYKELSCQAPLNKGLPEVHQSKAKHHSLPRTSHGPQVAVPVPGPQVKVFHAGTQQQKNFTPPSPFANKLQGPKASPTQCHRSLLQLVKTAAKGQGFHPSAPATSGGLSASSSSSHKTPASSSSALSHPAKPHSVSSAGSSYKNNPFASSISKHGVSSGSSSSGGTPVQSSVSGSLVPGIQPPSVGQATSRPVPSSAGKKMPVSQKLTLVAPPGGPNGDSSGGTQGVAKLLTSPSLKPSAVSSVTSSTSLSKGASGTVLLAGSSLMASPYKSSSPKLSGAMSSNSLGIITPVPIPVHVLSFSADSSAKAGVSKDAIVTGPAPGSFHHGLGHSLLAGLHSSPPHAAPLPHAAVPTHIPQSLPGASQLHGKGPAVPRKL
UniProt P10599: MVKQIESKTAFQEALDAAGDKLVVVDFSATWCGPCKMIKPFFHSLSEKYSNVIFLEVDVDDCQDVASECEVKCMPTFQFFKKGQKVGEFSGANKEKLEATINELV

The list shows a part of the results.

Compound in the assay: CC1Cc2ccccc2N1C(=O)C1CCCN(C1)C(=O)CCl (mixture of isomers) [TRIM25 ligand 11 (diastereomer mixture)]
Nature of the assay: probe-labelled cysteine peptide fold change vs DMSO (competition) (log2 fold change); higher = less target engagement (more negative = stronger competition). The conditions noted are these: THP-1, incubation time: 4 h.
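Also: competitive chemoproteomic profiling in live THP-1 cells with an iodoacetamide desthiobiotin (IA-DTB) probe, comparing probe-labelled peptide intensities in compound-treated cells against DMSO-treated controls.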

For “UBL7_Q96S82_66_LQESVPDPELIDLIYCGR (UniProt Q96S82)”, the “probe-labelled cysteine peptide fold change” value is -0.0978 (10 µM) and -0.264 (50 µM).
“TYK2_P29597_291_LLAQAEGEPCYIR (UniProt P29597)”: the “probe-labelled cysteine peptide fold change” value is, setting by setting: (10 µM) 0.033; (50 µM) -0.0777.
In the case of “TXNIP_Q9H3M7_170_VSCMFIPDGR (UniProt Q9H3M7)”, the “probe-labelled cysteine peptide fold change” value (10 µM) amounted to 0.144 and the “probe-labelled cysteine peptide fold change” value (50 µM) amounted to 0.136.
The corresponding values for “UBAP1_Q9NZ09_452_GFDPLLVEEALEMHQCSEEK (UniProt Q9NZ09)” are -0.0976 and -0.166.
With “UBE2Z_Q9H832_286_SFLEYYDFYEVACK (UniProt Q9H832)”, the “probe-labelled cysteine peptide fold change” value by setting is: (10 µM) -0.0399; (50 µM) -0.211.
On to “UBE2V1_Q13404_144_LPQPPEGQCYSN (UniProt Q13404)”, for which the “probe-labelled cysteine peptide fold change” value by setting is: (10 µM) -0.0699; (50 µM) -0.213.
For the target “TYK2_P29597_1140_CPCEVYHLMK (UniProt P29597)”, the “probe-labelled cysteine peptide fold change” value is, setting by setting: (10 µM) -0.0795; (50 µM) -0.214.
As for “TXNDC9_O14530_94_ESENVVCHFYR (UniProt O14530)”, the “probe-labelled cysteine peptide fold change” value is -0.0365 (10 µM) and -0.048 (50 µM).
As for “TXNRD2_Q9NNW7_523_SGLDPTVTGCUG (UniProt Q9NNW7)”, the “probe-labelled cysteine peptide fold change” value was -0.465 (10 µM) and -2 (50 µM).
For the target “TXNIP_Q9H3M7_170_KVSCMFIPDGR (UniProt Q9H3M7)”, the “probe-labelled cysteine peptide fold change” value reads like this: (10 µM) 0.0891; (50 µM) 0.294.
The corresponding values for “UBAC1_Q9BSL1_19_LHICASDGAEWLEEATEDTSVEK (UniProt Q9BSL1)” are -0.201 and -0.213.
“UBR1_Q8IWV7_1726_LHLVWQQHCIIEEIAR (UniProt Q8IWV7)”: the “probe-labelled cysteine peptide fold change” value (10 µM) was -0.0216 and the “probe-labelled cysteine peptide fold change” value (50 µM) amounted to 0.0386.
Take “UBN1_Q9NPG3_765_ELSCQAPLNK (UniProt Q9NPG3)”: the “probe-labelled cysteine peptide fold change” value is 0.0394 (10 µM) and -0.0866 (50 µM).
With “TXN_P10599_73_CMPTFQFFK (UniProt P10599)”, the “probe-labelled cysteine peptide fold change” value is -0.14 (10 µM) and -0.279 (50 µM).
Regarding “TYK2_P29597_435_LTADSSHYLCHEVAPPR (UniProt P29597)”, the “probe-labelled cysteine peptide fold change” value runs as follows: (10 µM) 0.156; (50 µM) 0.13.
